Source: patent US20080274096A1, “Fusion Proteins Having a Modulated Half-Life in Plasma” (ASTRAZENECA AB, priority 2005, published 2008)
No constants are given. Whether binding was seen depends on the method and setting. Some binding calls cover weakened binding; strength is not graded here.

Tests used:
[1] = molecular target: IDE-Fc (IgG4) fusion protein (human); experiment: solid-phase extraction from cell supernatant
[2] = molecular target: IDE-Fc (IgG4) fusion protein (human); experiment: Protein A affinity chromatography, low pH elution
[3] = molecular target: Neprilysin-Fc (IgG4) fusion protein (human); experiment: Protein A affinity chromatography, low pH elution
[4] = molecular target: IDE-Fc (IgG4) fusion protein (human); experiment: Protein A affinity chromatography, high salt elution
[5] = molecular target: Neprilysin-Fc (IgG4) fusion protein (human); experiment: as above

Measured: binding

Protein A (Protein A sepharose, GE Healthcare) (from UniProt P38507 37-327)
binds: all assays above
